Measured values from the supplement of paper PMC4635364.
Counter-ions that a name gives are not always drawn. The list shows a part of the results. Repeats in this data set agree poorly, so a single value says little.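 ReNCell VM, a human fetal ventral-midbrain neural progenitor line, was differentiated without mitogens. Blinded raters scored images stained for doublecortin (early neurons) or tyrosine hydroxylase (dopaminergic neurons) against untreated wells (0 = no change). Scores were averaged across repeats and both raters, and compounds averaging 2 or more were selected as hits for retesting.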

What was measured:
ReNCell VM [1] = test: neuronal differentiation score (DCX+ cell fraction vs untreated, manual image score) (score (-3 to 3)); higher = more neuronal differentiation; settings: 2 uM, 2 weeks
ReNCell VM [2] = test: dopaminergic neuron differentiation score (TH+ cell fraction vs untreated, manual image score) (score (0 to 3)); higher = more TH+ dopaminergic neuron differentiation; settings: 2 uM, 4 weeks, BDNF 10 ng/ml + GDNF 10 ng/ml

Nc1ccc(-c2nc3ccc(-c4nc5ccc(N)cc5[nH]4)cc3[nH]2)cc1
inactive: neuronal differentiation score (ReNCell VM [1]; library: LOPAC) -2 | neuronal differentiation score (ReNCell VM [1]; library: Tocriscreen) 0 | dopaminergic neuron differentiation score (ReNCell VM [2]; library: LOPAC) 0 | dopaminergic neuron differentiation score (ReNCell VM [2]; library: Tocriscreen) 0

CC(C)(CO)Cc1cc(C(C)(C)C)c(O)c(C(C)(C)C)c1
inactive: neuronal differentiation score (ReNCell VM [1]; library: LOPAC) -1 | neuronal differentiation score (ReNCell VM [1]; library: Tocriscreen) 0 | dopaminergic neuron differentiation score (ReNCell VM [2]; library: LOPAC) 0 | dopaminergic neuron differentiation score (ReNCell VM [2]; library: Tocriscreen) 0

NC(=O)c1ncn([C@@H]2O[C@H](CO)[C@@H](O)[C@H]2O)n1 [Ribavirin]
inactive: neuronal differentiation score (ReNCell VM [1]; library: LOPAC) 0 | neuronal differentiation score (ReNCell VM [1]; library: Prestwick) 0 | dopaminergic neuron differentiation score (ReNCell VM [2]; library: LOPAC) 0 | dopaminergic neuron differentiation score (ReNCell VM [2]; library: Prestwick) 0

CN1CCN(CCCN2c3ccccc3Sc3ccc(C(F)(F)F)cc32)CC1 [Trifluoperazine dihydrochloride]
inactive: neuronal differentiation score (ReNCell VM [1]; library: LOPAC) 0 | neuronal differentiation score (ReNCell VM [1]; library: Prestwick) 0 | dopaminergic neuron differentiation score (ReNCell VM [2]; library: LOPAC) 0 | dopaminergic neuron differentiation score (ReNCell VM [2]; library: Prestwick) 0

O=C(CCCN1CCC(O)(c2ccc(Cl)cc2)CC1)c1ccc(F)cc1 [Haloperidol]
inactive: neuronal differentiation score (ReNCell VM [1]; library: LOPAC) 1 | neuronal differentiation score (ReNCell VM [1]; library: Prestwick) 0 | dopaminergic neuron differentiation score (ReNCell VM [2]; library: LOPAC) 0 | dopaminergic neuron differentiation score (ReNCell VM [2]; library: Prestwick) 0

COc1cc2nc(N3CCN(C(=O)C4COc5ccccc5O4)CC3)nc(N)c2cc1OC (stereo not given) [Doxazosin mesylate]
inactive: neuronal differentiation score (ReNCell VM [1]; library: LOPAC) 0 | neuronal differentiation score (ReNCell VM [1]; library: Prestwick) 0 | dopaminergic neuron differentiation score (ReNCell VM [2]; library: LOPAC) 0 | dopaminergic neuron differentiation score (ReNCell VM [2]; library: Prestwick) 0

O=C(O)c1cccnc1Nc1cccc(C(F)(F)F)c1 [Niflumic acid]
inactive: neuronal differentiation score (ReNCell VM [1]; library: LOPAC) 0 | neuronal differentiation score (ReNCell VM [1]; library: Prestwick) 0 | dopaminergic neuron differentiation score (ReNCell VM [2]; library: LOPAC) 0 | dopaminergic neuron differentiation score (ReNCell VM [2]; library: Prestwick) 0

C=CCc1ccccc1OCC(O)CNC(C)C (stereo not given) [Alprenolol hydrochloride]
inactive: neuronal differentiation score (ReNCell VM [1]; library: LOPAC) 0 | neuronal differentiation score (ReNCell VM [1]; library: Prestwick) 0 | dopaminergic neuron differentiation score (ReNCell VM [2]; library: LOPAC) 0 | dopaminergic neuron differentiation score (ReNCell VM [2]; library: Prestwick) 0

Pulled by structure from the entries so far (2):
C=CCc1ccccc1OCC(O)CNC(C)C (stereo not given) [Alprenolol hydrochloride]
inactive: neuronal differentiation score (ReNCell VM [1]; library: LOPAC) 0 | neuronal differentiation score (ReNCell VM [1]; library: Prestwick) 0 | dopaminergic neuron differentiation score (ReNCell VM [2]; library: LOPAC) 0 | dopaminergic neuron differentiation score (ReNCell VM [2]; library: Prestwick) 0

COc1cc2nc(N3CCN(C(=O)C4COc5ccccc5O4)CC3)nc(N)c2cc1OC (stereo not given) [Doxazosin mesylate]
inactive: neuronal differentiation score (ReNCell VM [1]; library: LOPAC) 0 | neuronal differentiation score (ReNCell VM [1]; library: Prestwick) 0 | dopaminergic neuron differentiation score (ReNCell VM [2]; library: LOPAC) 0 | dopaminergic neuron differentiation score (ReNCell VM [2]; library: Prestwick) 0

The listing continues.

CC(C)(C)c1ccc(/C=C/C(=O)Nc2ccc3c(c2)OCCO3)cc1
inactive: neuronal differentiation score (ReNCell VM [1]; library: LOPAC) 0 | neuronal differentiation score (ReNCell VM [1]; library: Tocriscreen) 0 | dopaminergic neuron differentiation score (ReNCell VM [2]; library: LOPAC) 0 | dopaminergic neuron differentiation score (ReNCell VM [2]; library: Tocriscreen) 0

CN(C)CCCN1c2ccccc2Sc2ccc(C(F)(F)F)cc21 [Triflupromazine hydrochloride]
inactive: neuronal differentiation score (ReNCell VM [1]; library: LOPAC) 0 | neuronal differentiation score (ReNCell VM [1]; library: Prestwick) 0 | dopaminergic neuron differentiation score (ReNCell VM [2]; library: LOPAC) 0 | dopaminergic neuron differentiation score (ReNCell VM [2]; library: Prestwick) 0

NC(CO)C(=O)NNCc1ccc(O)c(O)c1O (stereo not given) [Benserazide hydrochloride]
inactive: neuronal differentiation score (ReNCell VM [1]; library: LOPAC) 0 | neuronal differentiation score (ReNCell VM [1]; library: Prestwick) 0 | dopaminergic neuron differentiation score (ReNCell VM [2]; library: LOPAC) 0 | dopaminergic neuron differentiation score (ReNCell VM [2]; library: Prestwick) 0

CC(C(O)c1ccc(O)cc1)N1CCC(Cc2ccccc2)CC1 (stereo not given) [Ifenprodil tartrate]
inactive: neuronal differentiation score (ReNCell VM [1]; library: LOPAC) 0 | neuronal differentiation score (ReNCell VM [1]; library: Prestwick) 0 | dopaminergic neuron differentiation score (ReNCell VM [2]; library: LOPAC) 0 | dopaminergic neuron differentiation score (ReNCell VM [2]; library: Prestwick) 0

OC[C@H]1O[C@@H](n2cnc3c(NC4CCCC4)ncnc32)[C@H](O)[C@@H]1O [N6-Cyclopentyladenosine]
inactive: neuronal differentiation score (ReNCell VM [1]; library: LOPAC) -3 | neuronal differentiation score (ReNCell VM [1]; library: Tocriscreen) 1 | dopaminergic neuron differentiation score (ReNCell VM [2]; library: LOPAC) 0 | dopaminergic neuron differentiation score (ReNCell VM [2]; library: Tocriscreen) 0

COc1nc(C)nc(Cl)c1NC1=NCCN1 [Moxonidine hydrochloride]
inactive: neuronal differentiation score (ReNCell VM [1]; library: LOPAC) 0 | neuronal differentiation score (ReNCell VM [1]; library: Tocriscreen) 0 | dopaminergic neuron differentiation score (ReNCell VM [2]; library: LOPAC) 0 | dopaminergic neuron differentiation score (ReNCell VM [2]; library: Tocriscreen) 0

Nc1nc(N)nc(-c2cc(Cl)ccc2Cl)n1 [Irsogladine maleate]
inactive: neuronal differentiation score (ReNCell VM [1]; library: Prestwick) 0 | neuronal differentiation score (ReNCell VM [1]; library: Tocriscreen) 0 | dopaminergic neuron differentiation score (ReNCell VM [2]; library: Prestwick) 0 | dopaminergic neuron differentiation score (ReNCell VM [2]; library: Tocriscreen) 0

COc1ccccc1O [Guaiacol]
inactive: neuronal differentiation score (ReNCell VM [1]; library: Phytochemical) 0 | neuronal differentiation score (ReNCell VM [1]; library: Prestwick) 0 | dopaminergic neuron differentiation score (ReNCell VM [2]; library: Phytochemical) 0 | dopaminergic neuron differentiation score (ReNCell VM [2]; library: Prestwick) 0

CC[C@H]1OC(=O)[C@H](C)[C@@H](O[C@H]2C[C@@](C)(OC)[C@@H](O)[C@H](C)O2)[C@H](C)[C@@H](O[C@@H]2O[C@H](C)C[C@H](N(C)C)[C@H]2O)[C@](C)(O)C[C@@H](C)C(=O)[C@H](C)[C@@H](O)[C@]1(C)O [Erythromycin]
inactive: neuronal differentiation score (ReNCell VM [1]; library: Phytochemical) 0 | neuronal differentiation score (ReNCell VM [1]; library: Prestwick) 0 | dopaminergic neuron differentiation score (ReNCell VM [2]; library: Phytochemical) 0 | dopaminergic neuron differentiation score (ReNCell VM [2]; library: Prestwick) 0

CN(C)c1nc(N(C)C)nc(N(C)C)n1 [Altretamine]
inactive: neuronal differentiation score (ReNCell VM [1]; library: LOPAC) 0 | neuronal differentiation score (ReNCell VM [1]; library: Prestwick) 0 | dopaminergic neuron differentiation score (ReNCell VM [2]; library: LOPAC) 0 | dopaminergic neuron differentiation score (ReNCell VM [2]; library: Prestwick) 0

Nc1ncnc2c1ncn2[C@@H]1O[C@H](CO)[C@@H](O)[C@H]1O [Adenosine]
inactive: neuronal differentiation score (ReNCell VM [1]; library: LOPAC) 0 | neuronal differentiation score (ReNCell VM [1]; library: Phytochemical) 0 | dopaminergic neuron differentiation score (ReNCell VM [2]; library: LOPAC) 0 | dopaminergic neuron differentiation score (ReNCell VM [2]; library: Phytochemical) 0

CCn1c(=O)[nH]c2cc(Cl)c(Cl)cc21
inactive: neuronal differentiation score (ReNCell VM [1]; library: LOPAC) 0 | neuronal differentiation score (ReNCell VM [1]; library: Tocriscreen) 0 | dopaminergic neuron differentiation score (ReNCell VM [2]; library: LOPAC) 0 | dopaminergic neuron differentiation score (ReNCell VM [2]; library: Tocriscreen) 0
